# Reference: the supplement of paper PMC8104966
# ± gives the standard deviation of the averaged measurements. Some of the results follow. Repeats in this data set agree poorly, so a single value says little.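 U2OS cells carrying ACE2 were mixed with U2OS cells carrying full-length spike, and fusion was scored by imaging as the share of nuclei showing both cell types' fluorescent markers. A compound counts as an inhibitory hit when it is non-toxic and its fusion z-score falls below -3, meaning more than three standard deviations below the plate's DMSO wells.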
# Tested on: U2OS ACE2 x SARS-CoV-2 spike co-culture
# Experiment: cell-cell fusion (fraction fused) z-score vs plate DMSO control; higher = more fusion
# Settings: 30 µM; 5 h; toxicity class: non-toxic, passed QC
row,SMILES,cell-cell fusion (z-score)
1,CNC(=O)Oc1ccc2c(c1)[C@]1(C)CCN(C)[C@@H]1N2C.O=C(O)c1ccccc1O,inactive: -0.907
2,O=C(/C=C/c1ccc(O)cc1)CC(=O)/C=C/c1ccc(O)cc1 [Bisdemethoxycurcumin],inactive: 4.54
3,NCC1OC(O[C@@H]2[C@H](O)C(OC3C(O)C(N)CC(N)C3OC3OC(CO)C(O)C(O)C3N)O[C@@H]2CO)C(N)C(O)C1O.O=S(=O)(O)O (some centres undefined) [Paromomycin sulfate],inactive: 1.93
4,CC1(C)CCC2=C(O1)C(=O)c1ccccc1C2=O [alpha-LAPACHONE],inactive: 1.1
5,CCCN(CCc1cccs1)[C@H]1CCc2c(O)cccc2C1 [Rotigotine],inactive: 0.131
6,CCN1CCN(Cc2ccc(Nc3ncc(F)c(-c4cc(F)c5nc(C)n(C(C)C)c5c4)n3)nc2)CC1.CS(=O)(=O)O,inactive: 0.991
7,CO[C@H]1O[C@@H]2O[C@@]3(C)CC[C@H]4[C@H](C)CC[C@@H]([C@H]1C)[C@@]24OO3 [Artemether],inactive: 1.29
8,NC[C@H]1O[C@H](O[C@H]2[C@H](O)[C@@H](O[C@H]3O[C@H](CO)[C@@H](O)[C@H](N)[C@H]3O)[C@H](N)C[C@@H]2N)[C@H](N)[C@@H](O)[C@@H]1O.O=S(=O)(O)O,inactive: 1.82
9,CCN(CC)CCNC(=O)c1ccc(NS(C)(=O)=O)cc1.Cl.O [Sematilide monohydrochloride monohydrate],inactive: 3.73
10,c1cncc(C2=NCCC2)c1,inactive: 1.84
11,CO/N=C(\C(=O)N[C@@H]1C(=O)N2C(C(=O)[O-])=C(COC(N)=O)CS[C@H]12)c1ccco1.[Na+] [Cefuroxime sodium],inactive: 1.29
12,COc1cnc(NS(=O)(=O)c2ccc(N)cc2)nc1,inactive: 1.87
13,Cl.Fc1ccc(C(OCCCc2c[nH]cn2)c2ccc(F)cc2)cc1,inactive: 2.75
14,CCN(CC)CCNC(=O)c1cc(S(C)(=O)=O)ccc1OC.Cl [Tiapride hydrochloride],inactive: 2.76
15,Cc1ccc(=O)n(-c2ccccc2)c1 [Pirfenidone],inactive: 2.41
16,c1ccc2c(CCNc3ccc(Nc4ccncc4)cc3)c[nH]c2c1,inactive: -0.461
17,Cc1ccc([C@@H]2O[C@H](CO)[C@@H](O)[C@H](O)[C@H]2O)cc1Cc1ccc(-c2ccc(F)cc2)s1 [Canagliflozin],inactive: 0.908
18,CCCc1nn(C)c2c(=O)[nH]c(-c3cc(S(=O)(=O)N4CCN(C)CC4)ccc3OCC)nc12.O=C(O)CC(O)(CC(=O)O)C(=O)O [Sildenafil citrate],inactive: 1.25
19,CC(=O)OCC(=O)[C@@]12O[C@@H]1CC1C3CC=C4C[C@@H](O)CC[C@]4(C)C3CC[C@@]12C (some centres undefined),inactive: 0.0105
20,Cc1cccc(CN2CCN(C(c3ccccc3)c3ccc(Cl)cc3)CC2)c1.Cl.Cl (centres undefined),inactive: -0.115
21,CN/C(=N\C#N)NCCSCc1nc[nH]c1C,inactive: 1.48
22,C[N+]1(C)C2CCC1CC(OC(=O)c1c[nH]c3ccccc13)C2.[I-] (centres undefined) [3-Tropanylindole-3-carboxylate methiodide],active: -3.84

# Individual results from the list.
# Value of c1ccc2c(CCNc3ccc(Nc4ccncc4)cc3)c[nH]c2c1 under cell-cell fusion (z-score): inactive: -0.461
# Value of NCC1OC(O[C@@H]2[C@H](O)C(OC3C(O)C(N)CC(N)C3OC3OC(CO)C(O)C(O)C3N)O[C@@H]2CO)C(N)C(O)C1O.O=S(=O)(O)O (some centres undefined) [Paromomycin sulfate] under cell-cell fusion (z-score): inactive: 1.93

# Carrying on:

row,SMILES,cell-cell fusion (z-score)
1,N#CC(=Cc1ccc(O)c(O)c1)C(N)=S [Tyrphostin 47],inactive: 1.16
2,CC(=O)O.CC(=O)O.N=C(NCCCCCCNC(=N)NC(=N)Nc1ccc(Cl)cc1)NC(=N)Nc1ccc(Cl)cc1 [Chlorhexidine Acetate],active: -13
3,COc1ccc(C[C@@H](C)NC[C@H](O)c2ccc(O)c(NC=O)c2)cc1 [Formoterol],inactive: -0.9
4,Cc1c(-c2cnccn2)ssc1=S,inactive: 1.56
5,N.N.O=C1[O][Pt][O]C(=O)C12CCC2,inactive: 1.3
6,COc1ccc(-n2nc(CCC(=O)N(C)O)cc2-c2ccc(Cl)cc2)cc1,inactive: 1.46
7,C[C@]12CCC(OC(=O)c3ccccc3)CC1CCc1ccccc12 (some centres undefined),inactive: 0.402
8,CC(=O)c1c(O)cc(O)cc1O,inactive: 0.915
9,O=C1c2ccccc2-c2cccc3cccc1c23,inactive: 1.58
10,C[C@H](N)C(=O)NC(Cc1ccccc1)C(=O)O (mixture of isomers),inactive: 2.22
11,O=C(CCCCCCC(=O)Nc1ccccc1)NO [Vorinostat (SAHA)],inactive: 1.87
12,Cc1cc(C(C)(C)C)cc(C)c1CC1=NCCN1.Cl,inactive: 0.695
13,Cc1cc(C(C)(C)C)cc(C)c1CC1=NCCN1.Cl [Xylometazoline hydrochloride],inactive: 1.13
14,NC[C@H]1O[C@H](O[C@H]2[C@H](O)[C@@H](O[C@H]3O[C@H](CO)[C@@H](O)[C@H](N)[C@H]3O)[C@H](N)C[C@@H]2N)[C@H](O)[C@@H](O)[C@@H]1O.O=S(=O)(O)O [Kanamycin sulfate],inactive: 2.15
15,C=CCN1CC[C@]23c4c5ccc(O)c4O[C@H]2C(=O)CC[C@@]3(O)[C@H]1C5.Cl [Naloxone hydrochloride],inactive: 1.04
16,C[N+]1(C)C2CC[C@H]1C[C@@H](OC(=O)C(O)c1ccccc1)C2.[Br-] (some centres undefined),inactive: 0.175
17,CCOc1cc2ncc(C#N)c(Nc3ccc(F)c(Cl)c3)c2cc1NC(=O)/C=C/CN(C)C [Pelitinib (EKB-569)],-5.52 ± 4.8
18,Cl[C@H]1[C@H](Cl)[C@@H](Cl)[C@@H](Cl)[C@H](Cl)[C@H]1Cl,inactive: 1.62
19,CCOc1ccc(S(=O)(=O)[O-])c2cccnc12.[Na+],inactive: 4.81
20,CC(C)NNC(=O)c1ccncc1.O=P(O)(O)O [Iproniazid phosphate],inactive: 2.76
21,CC(C)NNC(=O)c1ccncc1.O=P(O)(O)O,inactive: 2.29
22,CC(=O)O[C@H]1CCC2(C)C3=C(CCC2C1(C)C)[C@]1(C)CCC(C(C)CCC=C(C)C)[C@@]1(C)CC3 (some centres undefined),inactive: 3.86
